# Measured values taken from publication PMC8585765, “An OsKala3, R2R3 MYB TF, Is a Common Key Player for Black Rice Pericarp as Main Partner of an OsKala4, bHLH TF” (Frontiers in Plant Science, 2021).
# Biological target: OsKala3 (rice (Oryza sativa)) (UniProt O23891)
# Experiment: two-hybrid; full-length ORFs each in pGBKT7 (GAL4 BD) and pGADT7 (GAL4 AD), introduced in pairs into yeast MaV203; SD lacking Trp, Leu and His with 10 mM 3-AT; 2 days in the dark at 30°C
substance,measurement,value
OsKala4 (from UniProt Q948Y2),binding,binds

# No constants are given. Whether binding was seen depends on the method and setting. Binding calls can cover weak binding; strength is not graded here.
